Data as given in PubChem BioAssay AID248 (DTP/NCI, 2004).
The list is a part of this screen's results and no random one: it gathers tests that were run many times, whatever their T/C, doses with no T/C, and many T/C values between a quarter and a half above the control. Further doses and runs are listed elsewhere. T/C: endpoint of the treated group in % of that of the vehicle group. Some doses have a count of surviving animals in place of a T/C: the source files T/C as zero there, which appears to mark a toxic dose or a test without result, not a measured value. Some survivor counts are full or nearly so, which does not show that the dose was tolerated: survival well below the control is almost never listed, so the zero probably covers shortened survival too. Counts of survivors are from the toxicity check (mostly the fifth day) where no day follows; animals may have died later. Schedules are NCI's codes, taken here to give the interval after Q, in days (D) or hours (H), and the number of doses after X. Some entries hold several experiments; the values are given in rising order. Where survival is the endpoint, this PubChem deposit counts one and a half times the control or more as active, and values a quarter to a half above the control carry no call in these data; other NCI protocols may use other cut-offs. Signs of the kind (2×) stand for listed records that agree. Some T/C values are followed by the survivors on the day toxicity was checked, most often the fifth; without a count, all were alive then.

System: L1210 leukemia ip in BDF1 mice, survival T/C
Assay: NCI In Vivo Anticancer Drug Screen. Data for tumor model L1210 Leukemia (intraperitoneal) in B6D2F1 (BDF1) mice
Details: vehicle: saline, higher T/C = longer survival
[1] = T/C endpoint: mean survival time, dose: 6.25 mg/kg/injection, schedule: Q01DX009 (ip)
[2] = T/C endpoint: mean survival time, dose: 12.5 mg/kg/injection, schedule: Q01DX009 (ip)
[3] = T/C endpoint: mean survival time, dose: 25.0 mg/kg/injection, schedule: Q01DX009 (ip)

Structure (SMILES): N[C@H](C(=O)O)[C@@H]1CC(Cl)=NO1
- T/C (T/C endpoint: mean survival time, dose: 0.2 mg/kg/injection, schedule: Q03HX024 (ip)): 143 % of control [7 of 8 alive]
- T/C (T/C endpoint: mean survival time, dose: 0.39 mg/kg/injection, schedule: Q01DX009 (ip)): 105 (2×), 107, 111 (2×), 113, 116, 118, 125 % of control
- T/C (T/C endpoint: mean survival time, dose: 0.39 mg/kg/injection, schedule: Q03HX008 (ip)): 132 % of control
- T/C (T/C endpoint: mean survival time, dose: 0.78 mg/kg/injection, schedule: Q01DX009 (ip)): 107, 110, 115, 118, 120, 121, 127 (2×), 128, 130 (3×), 131, 133 (3×), 135 % of control
- T/C (T/C endpoint: mean survival time, dose: 0.78 mg/kg/injection, schedule: Q01DX009 (oral)): 130 % of control
- T/C (T/C endpoint: mean survival time, dose: 0.78 mg/kg/injection, schedule: Q01DX009 (sc)): 127 and 133 % of control
- T/C (T/C endpoint: mean survival time, dose: 0.78 mg/kg/injection, schedule: Q03HX008 (ip)): 136 % of control
- T/C (T/C endpoint: mean survival time, dose: 1.56 mg/kg/injection, schedule: Q01DX009 (ip)): 124, 126 (2×), 129, 131 (2×), 134 (2×), 138, 139, 141, 142, 145, 146, 149, 150, 152 % of control
- T/C (T/C endpoint: mean survival time, dose: 1.56 mg/kg/injection, schedule: Q01DX009 (oral)): 139 % of control
- T/C (T/C endpoint: mean survival time, dose: 1.56 mg/kg/injection, schedule: Q01DX009 (sc)): 135 and 148 % of control
- T/C (T/C endpoint: mean survival time, dose: 1.56 mg/kg/injection, schedule: Q03HX008 (ip)): 143 % of control
- T/C (T/C endpoint: mean survival time, dose: 1.56 mg/kg/injection, schedule: Q04DX003 (ip)): 128 % of control
- T/C (T/C endpoint: mean survival time, dose: 2.0 mg/kg/injection, schedule: Q01DX009 (ip)): 137 % of control (2×)
- T/C (T/C endpoint: mean survival time, dose: 3.12 mg/kg/injection, schedule: Q01DX009 (ip)): 107, 109, 123, 131, 134 (3×), 134 [5 of 6 alive], 137, 141 (2×), 146, 150, 154, 156, 158, 163, 171 % of control
- T/C (T/C endpoint: mean survival time, dose: 3.12 mg/kg/injection, schedule: Q01DX009 (sc)): 133 and 148 % of control
- T/C (T/C endpoint: mean survival time, dose: 3.12 mg/kg/injection, schedule: Q03HX008 (ip)): 143 % of control
- T/C (T/C endpoint: mean survival time, dose: 3.12 mg/kg/injection, schedule: Q04DX003 (ip)): 125 % of control
- T/C (T/C endpoint: mean survival time, dose: 3.13 mg/kg/injection, schedule: Q01DX009 (ip)): 136 % of control
- T/C (T/C endpoint: mean survival time, dose: 4.0 mg/kg/injection, schedule: Q01DX009 (ip)): 142 % of control
- T/C [1]: 93, 95, 96, 100 [5 of 6 alive], 117, 127, 130, 141, 143, 146, 150 (2×), 155, 158, 164, 166, 168 % of control
- survivor count [1]: 5 of 6 and 6 of 6
- T/C (T/C endpoint: mean survival time, dose: 6.25 mg/kg/injection, schedule: Q03HX008 (ip)): 147 % of control
- T/C (T/C endpoint: mean survival time, dose: 6.25 mg/kg/injection, schedule: Q04DX003 (ip)): 131 % of control
- T/C [2]: 92, 93, 97 [5 of 6 alive], 106, 124, 127, 132, 145, 161 [5 of 6 alive], 164, 169, 174, 191 % of control
- survivor count [2]: 6 of 6 and 8 of 8
- survivor count (T/C endpoint: mean survival time, dose: 12.5 mg/kg/injection, schedule: Q01DX009 (oral)): 6 of 6
- T/C (T/C endpoint: mean survival time, dose: 12.5 mg/kg/injection, schedule: Q03HX008 (ip)): 148 % of control
- T/C (T/C endpoint: mean survival time, dose: 12.5 mg/kg/injection, schedule: Q04DX003 (ip)): 146 % of control
- survivor count (T/C endpoint: mean survival time, dose: 12.8 mg/kg/injection, schedule: Q01DX009 (ip)): 8 of 8
- T/C (T/C endpoint: mean survival time, dose: 16.0 mg/kg/injection, schedule: Q01DX009 (ip)): 132 % of control
- T/C (T/C endpoint: mean survival time, dose: 25.0 mg/kg/injection, schedule: Q01DX001 (ip)): 125 % of control
- T/C [3]: 86, 111, 120, 124, 137, 158, 180, 186 % of control
- survivor count [3]: 4 of 6, 5 of 6, 6 of 6, 8 of 8
- survivor count (T/C endpoint: mean survival time, dose: 25.0 mg/kg/injection, schedule: Q01DX009 (oral)): 5 of 6
- T/C (T/C endpoint: mean survival time, dose: 25.0 mg/kg/injection, schedule: Q04DX003 (ip)): 146 % of control
- T/C (T/C endpoint: mean survival time, dose: 50.0 mg/kg/injection, schedule: Q01DX001 (ip)): 126 % of control
- survivor count (T/C endpoint: mean survival time, dose: 50.0 mg/kg/injection, schedule: Q01DX009 (ip)): 6 of 6
- survivor count (T/C endpoint: mean survival time, dose: 50.0 mg/kg/injection, schedule: Q01DX009 (oral)): 4 of 6 and 6 of 8
- T/C (T/C endpoint: mean survival time, dose: 50.0 mg/kg/injection, schedule: Q04DX003 (ip)): 147 % of control
- T/C (T/C endpoint: mean survival time, dose: 100.0 mg/kg/injection, schedule: Q01DX001 (ip)): 129 % of control
- T/C (T/C endpoint: mean survival time, dose: 100.0 mg/kg/injection, schedule: Q04DX003 (ip)): 134 % of control
- T/C (T/C endpoint: mean survival time, dose: 200.0 mg/kg/injection, schedule: Q01DX001 (ip)): 148 % of control
- T/C (T/C endpoint: median survival time, dose: 0.19 mg/kg/injection, schedule: Q03HX024 (ip)): 148 % of control
- T/C (T/C endpoint: median survival time, dose: 0.39 mg/kg/injection, schedule: Q01DX009 (ip)): 138 % of control
- T/C (T/C endpoint: median survival time, dose: 0.39 mg/kg/injection, schedule: Q03HX008 (ip)): 125 % of control
